Experimental data: patent publication US20240317834A1, “COMPOSITIONS AND METHODS FOR NEUROLOGICAL DISEASES” (CODA BIOTHERAPEUTICS, INC., priority 2020, published 2024)

B1: CODA339: engineered chimeric LGIC receptor, L131D in SEQ ID NO: 33 (protein)
chain: MRCSPGGVWLALAASLLHVSLQGEFQRKLYKELVKNYNPLERPVANDSQPLTVYFSLSLLQIMDVDEKNQVLTTNIWLQMSWTDHYLQWNVSEYPGVKTVRFPDGQIWKPDILLYNSADERFDATFHTNVDVNSSGHCQYLPPGIFKSSCPMDLKNFPMDVQTCKLKFGSWSYGGWSLDLQMQEADISGYIPNGEWDLVGIPGKRSERFYECCKEPYPDVTFTVTMRRRMGYYLIQMYIPSLLIVILSWISFWINMDAAPARVGLGITTVLTMTTQSSGSRASLPKVSYVKAIDIWMAVCLLFVFSALLEYAAVNFVSRQHKELLRFRRKRRHHKSPMLNLFQEDEAGEGRFNFSAYGMGPACLQAKDGISVKGANNSNTTNPPPAPSKSPEEMRKLFIQRAKKIDKISRIGFPMAFLIFNMFYWIIYKIVRREDVHNQ
modifications: synthetic sequence of chimeric LGIC
B2: CODA409: engineered chimeric LGIC receptor, Y210W in SEQ ID NO: 33 (protein)
chain: B1 chain with D131L, Y210W
modifications: synthetic sequence of chimeric LGIC
B3: CODA535: engineered chimeric LGIC receptor, L131T, S172D in SEQ ID NO: 33 (protein)
chain: B1 chain with D131T, S172D
modifications: synthetic sequence of chimeric LGIC
B4: CODA1047: engineered chimeric LGIC receptor, R101F, Y210V in SEQ ID NO: 33 (protein)
chain: B1 chain with R101F, D131L, Y210V
modifications: synthetic sequence of chimeric LGIC
B5: CODA1025: engineered chimeric LGIC receptor, R101F, L131G in SEQ ID NO: 33 (protein)
chain: B1 chain with R101F, D131G
modifications: synthetic sequence of chimeric LGIC
B6: CODA805: engineered chimeric LGIC receptor, Y115D, S170T in SEQ ID NO: 33 (protein)
chain: B1 chain with Y115D, D131L, S170T
modifications: synthetic sequence of chimeric LGIC
B7: CODA1053: engineered chimeric LGIC receptor, R101M, L131A in SEQ ID NO: 33 (protein)
chain: B1 chain with R101M, D131A
modifications: synthetic sequence of chimeric LGIC
B8: CODA283: engineered chimeric LGIC receptor, Y115E_N379K in SEQ ID NO: 33 (protein)
chain: B1 chain with Y115E, D131L, N379K
modifications: synthetic sequence of chimeric LGIC
B9: CODA807: engineered chimeric LGIC receptor, Y115D, L131E in SEQ ID NO: 33 (protein)
chain: B1 chain with Y115D, D131E
modifications: synthetic sequence of chimeric LGIC
B10: CODA342: engineered chimeric LGIC receptor, L131R in SEQ ID NO: 33 (protein)
chain: B1 chain with D131R
modifications: synthetic sequence of chimeric LGIC
B11: CODA333: engineered chimeric LGIC receptor, L131S in SEQ ID NO: 33 (protein)
chain: B1 chain with D131S
modifications: synthetic sequence of chimeric LGIC
B12: CODA806: engineered chimeric LGIC receptor, Y115D, L131Q in SEQ ID NO: 33 (protein)
chain: B1 chain with Y115D, D131Q
modifications: synthetic sequence of chimeric LGIC
B13: CODA1027: engineered chimeric LGIC receptor, R101F, L131D in SEQ ID NO: 33 (protein)
chain: B1 chain with R101F
modifications: synthetic sequence of chimeric LGIC
B14: CODA282: engineered chimeric LGIC receptor, Y115D in SEQ ID NO: 33 (protein)
chain: B1 chain with Y115D, D131L
modifications: synthetic sequence of chimeric LGIC
B15: CODA335: engineered chimeric LGIC receptor, L131T in SEQ ID NO: 33 (protein)
chain: B1 chain with D131T
modifications: synthetic sequence of chimeric LGIC
B16: CODA1045: engineered chimeric LGIC receptor, R101W, Y210V in SEQ ID NO: 33 (protein)
chain: B1 chain with R101W, D131L, Y210V
modifications: synthetic sequence of chimeric LGIC
B17: CODA1054: engineered chimeric LGIC receptor, R101M, L131F in SEQ ID NO: 33 (protein)
chain: B1 chain with R101M, D131F
modifications: synthetic sequence of chimeric LGIC
B18: CODA536: engineered chimeric LGIC receptor, L131D, S172D in SEQ ID NO: 33 (protein)
chain: B1 chain with S172D
modifications: synthetic sequence of chimeric LGIC
B19: CODA952: engineered chimeric LGIC receptor, Y140I in SEQ ID NO: 33 (protein)
chain: B1 chain with D131L, Y140I
modifications: synthetic sequence of chimeric LGIC
B20: CODA377: engineered chimeric LGIC receptor, S172D in SEQ ID NO: 33 (protein)
chain: B1 chain with D131L, S172D
modifications: synthetic sequence of chimeric LGIC
B21: CODA1048: engineered chimeric LGIC receptor, R101F, Y210F in SEQ ID NO: 33 (protein)
chain: B1 chain with R101F, D131L, Y210F
modifications: synthetic sequence of chimeric LGIC
B22: CODA534: engineered chimeric LGIC receptor, L131S, S172D in SEQ ID NO: 33 (protein)
chain: B1 chain with D131S, S172D
modifications: synthetic sequence of chimeric LGIC

test system: HEK293T cells; assay: not given; type: cell-based; details: not given

| Molecule | Normalized AB % | Normalized AB MFI |
| --- | --- | --- |
| B1 | 0.84 | 1.41 |
| B2 | 0.88 | 0.62 |
| B3 | 0.43 | 0.72 |
| B4 | 0.03 | 0.38 |
| B5 | 0.46 | 0.90 |
| B6 | 0.56 | 0.93 |
| B7 | 0.91 | 0.90 |
| B8 | 1.24 | 1.31 |
| B9 | 0.78 | 1.14 |
| B10 | 0.61 | 1.24 |
| B11 | 1.28 | 1.20 |
| B12 | 0.33 | 2.04 |
| B13 | 0.50 | 0.68 |
| B14 | 1.23 | 1.04 |
| B15 | 1.65 | 1.32 |
| B16 | 0.03 | 0.35 |
| B17 | 0.82 | 0.82 |
| B18 | 0.48 | 0.87 |
| B19 | 0.54 | 2.64 |
| B20 | 0.50 | 0.90 |
| B21 | 0.55 | 0.57 |
| B22 | 0.44 | 0.91 |

test system: HEK293T cells; assay: Surface localization of HA-tagged engineered receptors by flow cytometry with anti-HA antibody; type: cell-based; details: % HA-tag positive cells, normalized to SEQ ID NO: 33 control

| Molecule | Normalized HA % |
| --- | --- |
| B1 | 1.59 |
| B2 | 0.96 |
| B3 | 0.33 |
| B4 | 1.13 |
| B5 | 0.98 |
| B6 | 0.70 |
| B7 | 1.31 |
| B8 | 1.16 |
| B9 | 0.91 |
| B10 | 1.83 |
| B11 | 1.42 |
| B12 | 0.36 |
| B13 | 0.61 |
| B14 | 0.91 |
| B15 | 2.00 |
| B16 | 1.09 |
| B17 | 0.96 |
| B18 | 0.40 |
| B19 | 1.41 |
| B20 | 0.36 |
| B21 | 1.05 |
| B22 | 0.47 |

same assay, conditions: anti-HA MFI, normalized to SEQ ID NO: 33 control

| Molecule | Normalized HA MFI |
| --- | --- |
| B1 | 0.79 |
| B2 | 1.09 |
| B3 | 0.86 |
| B4 | 0.65 |
| B5 | 0.63 |
| B6 | 0.94 |
| B7 | 0.97 |
| B8 | 1.00 |
| B9 | 1.00 |
| B10 | 0.74 |
| B11 | 0.76 |
| B12 | 0.83 |
| B13 | 0.49 |
| B14 | 0.74 |
| B15 | 0.88 |
| B16 | 0.87 |
| B17 | 0.88 |
| B18 | 0.87 |
| B19 | 1.53 |
| B20 | 0.61 |
| B21 | 0.61 |
| B22 | 1.10 |

Substitutions are numbered along the chain they refer to. Names and notes keep the numbering of the source.
